Read-outs that look alike come from different tables or passages of the source.
How the values were obtained:
[1] = target: T1, human placental microsomal aromatase (Homo sapiens, UniProt P11511); test: Aromatase inhibition in microsomal fraction of human placenta; type: biochemical; details: in vitro
T1 construct: from tissue; host or cells: human placenta, microsomal fraction
T1 sequence (P11511 1-503): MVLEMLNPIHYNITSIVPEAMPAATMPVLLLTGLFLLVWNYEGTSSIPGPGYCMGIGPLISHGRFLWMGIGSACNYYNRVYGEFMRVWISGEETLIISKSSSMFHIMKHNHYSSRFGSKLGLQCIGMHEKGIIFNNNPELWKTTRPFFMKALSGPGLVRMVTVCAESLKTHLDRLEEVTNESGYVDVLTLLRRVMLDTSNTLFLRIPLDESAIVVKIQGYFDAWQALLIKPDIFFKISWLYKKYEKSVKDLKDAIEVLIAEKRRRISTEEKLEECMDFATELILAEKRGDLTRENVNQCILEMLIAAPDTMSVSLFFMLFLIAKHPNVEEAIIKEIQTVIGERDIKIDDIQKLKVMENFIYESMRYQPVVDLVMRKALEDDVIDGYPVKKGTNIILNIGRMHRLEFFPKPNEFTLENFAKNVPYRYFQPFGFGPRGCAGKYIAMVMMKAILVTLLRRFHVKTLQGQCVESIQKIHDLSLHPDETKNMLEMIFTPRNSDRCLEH
Experimental: In two different aromatase dependent experimental models, inhibition of androstenedione-induced uterine hypertrophy in rats and inhibition of DMBA-induced mammary tumors in rats, the ED50 was 0.003 mg/kg and 0.01 mg/kg, respectively.
4,4′-[fluoro-(1-H-1,2,4-triazol-1-yl)methylene]bisbenzonitrile is a potent and selective inhibitor of aromatase.

[2] = target: T1, human placental microsomal aromatase; details: microsomal fraction of human placenta; Batzl-Hartmann et al, 1994; cited from earlier work

In the case of `N#Cc1ccc(C(F)(c2ccc(C#N)cc2)n2cncn2)cc1` [CGP47645, 4,4′-[fluoro-(1-H-1,2,4-triazol-1-yl)methylene]bisbenzonitrile], the IC50 [1] is given as 6 nM and the IC50 [2] is given as ~6.2 nM.
